Data reported in patent US9512090B2, “Tetrazolinone compound and use thereof” (Sumitomo Chemical Company, Limited, priority 2013, dated 2016).
Some results were stated once for a whole list of compounds, not compound by compound. At least one structure is not confirmed: it was looked up by name or label, or the drawing left a doubt.

What was measured:
Type in all cases: in vivo
[1] = system: cucumber powdery mildew fungus (Sphaerotheca fuliginea); assay: Test Example 6 and Comparative Test Example: cucumber powdery mildew control by foliar spray; conditions: 500 ppm spray on cucumber (SAGAMI HANJIRO); 8 days after inoculation
[2] = system: soybean rust fungus (Phakopsora pachyrhizi); assay: Test Example 7: soybean rust control by foliar spray; conditions: 200 ppm spray on soybean (KUROSENGOKU); inoculated after 2 days; assessed after 3 + 14 days
[3] = system: wheat leaf blotch fungus (Septoria tritici); assay: Test Example 5: wheat leaf blotch control by foliar spray; conditions: 500 ppm spray on wheat (APOGEE); inoculated after 4 days; assessed after 3 days + 14 to 18 days
[4] = system: barley scald fungus (Rhynchosporium secalis); assay: Test Example 8: barley scald control by foliar spray; conditions: 200 ppm spray on barley (NISHINOHOSHI); inoculated after 2 days; assessed after 3 + 7 days
[5] = system: cucumber anthracnose fungus (Colletotrichum lagenarium); assay: Test Example 10: cucumber anthracnose control by foliar spray; conditions: 200 ppm spray on cucumber (SAGAMI HANJIRO); inoculated after one day; assessed after 1 + 6 days
[6] = system: kidney bean stem rot fungus (Sclerotinia sclerotiorum); assay: Test Example 4: kidney bean stem rot control by foliar spray; conditions: 500 ppm spray on kidney bean (NAGAUZURA SAITOU); four days after inoculation

Measured: area of lesion spots on the treated plant relative to that on an untreated plant

COc1cccc(Oc2ccc(OCc3c(C)cccc3-n3nnn(C)c3=O)c(C)c2)c1 [compound 69]
≤ 30%: all assays above

COc1cccc(-n2nnn(C)c2=O)c1COc1cc(C)c(-c2ccccc2)cc1C [compound 141]
≤ 30%: [1] | [2] | [4] | [6]

COC(C)c1ccc(OCc2c(C)cccc2-n2nnn(C)c2=O)c(C)c1 (stereo not shown) [compound 85]
not listed: [5]
≤ 30%: all other assays above

Cc1cccc(-c2ccc(OCc3c(C)cccc3-n3nnn(C)c3=O)cc2C)c1 [compound 33]
≤ 30%: all assays above

COc1ccccc1Oc1ccc(OCc2c(C)cccc2-n2nnn(C)c2=O)c(C)c1 [compound 68]
≤ 30%: all assays above

Cc1cc(-c2ccccc2C#N)c(C)cc1OCc1c(C)cccc1-n1nnn(C)c1=O [compound 122]
≤ 30%: all assays above

CCc1cccc(-n2nnn(C)c2=O)c1COc1ccc(Oc2ccccc2)cc1C [compound 66]
not listed: [6]
≤ 30%: all other assays above

Cc1cc(C(O)c2ccccc2)ccc1OCc1c(C)cccc1-n1nnn(C)c1=O (stereo not shown) [compound 80]
≤ 30%: all assays above

Cc1cc(-c2ccccc2)c(C)cc1OCc1c(C)cccc1-n1nnn(C)c1=O [compound 34]
≤ 30%: all assays above

Cc1cc(-c2ccccc2F)ccc1OCc1c(C)cccc1-n1nnn(C)c1=O [compound 4]
≤ 30%: all assays above

Cc1ccc(-c2ccc(OCc3c(C)cccc3-n3nnn(C)c3=O)cc2C)cc1 [compound 30]
≤ 30%: all assays above

COc1cccc(-n2nnn(C)c2=O)c1COc1ccc(-c2cccc3ccccc23)cc1C [compound 46]
≤ 30%: all assays above

Cc1cc(-c2cccc(Cl)c2)c(C)cc1OCc1c(C)cccc1-n1nnn(C)c1=O [compound 32]
≤ 30%: all assays above

COc1cccc(-n2nnn(C)c2=O)c1COc1ccc(-c2ccc(C)cc2)cc1C [compound 22]
≤ 30%: all assays above

COc1cccc(-n2nnn(C)c2=O)c1COc1ccc(-c2ccc(C)cc2C)cc1C [compound 43]
≤ 30%: [2] | [6]

COc1cccc(-n2nnn(C)c2=O)c1COc1ccc(-c2ccc(F)cc2)cc1C [compound 39]
≤ 30%: all assays above

Cc1cc(-c2ccccc2)ccc1OCc1c(C)cccc1-n1nnn(C)c1=O [compound 35]
≤ 30%: all assays above

Cc1ccc(-c2ccc(OCc3c(C)cccc3-n3nnn(C)c3=O)c(C)c2)c(C)c1 [compound 5]
not listed: [6]
≤ 30%: all other assays above

COc1cccc(-n2nnn(C)c2=O)c1COc1ccc(-c2ccc(C)c(C)c2)cc1C [compound 42]
≤ 30%: [2] | [3] | [4] | [5]

COc1ccccc1-c1ccc(OCc2c(OC)cccc2-n2nnn(C)c2=O)c(C)c1 [compound 20]
not listed: [5]
≤ 30%: all other assays above

COc1cccc(-n2nnn(C)c2=O)c1COc1ccc(-c2cc(C)c(C)cc2C)cc1C [compound 44]
not listed: [5]
≤ 30%: all other assays above

Cc1cc(OCc2c(C)cccc2-n2nnn(C)c2=O)ccc1-c1ccccc1Cl [compound 31]
not listed: [6]
≤ 30%: all other assays above
